Protein sequences, listed by entry. Tags and fused reporters are not part of them.
UniProt Q9UJV9: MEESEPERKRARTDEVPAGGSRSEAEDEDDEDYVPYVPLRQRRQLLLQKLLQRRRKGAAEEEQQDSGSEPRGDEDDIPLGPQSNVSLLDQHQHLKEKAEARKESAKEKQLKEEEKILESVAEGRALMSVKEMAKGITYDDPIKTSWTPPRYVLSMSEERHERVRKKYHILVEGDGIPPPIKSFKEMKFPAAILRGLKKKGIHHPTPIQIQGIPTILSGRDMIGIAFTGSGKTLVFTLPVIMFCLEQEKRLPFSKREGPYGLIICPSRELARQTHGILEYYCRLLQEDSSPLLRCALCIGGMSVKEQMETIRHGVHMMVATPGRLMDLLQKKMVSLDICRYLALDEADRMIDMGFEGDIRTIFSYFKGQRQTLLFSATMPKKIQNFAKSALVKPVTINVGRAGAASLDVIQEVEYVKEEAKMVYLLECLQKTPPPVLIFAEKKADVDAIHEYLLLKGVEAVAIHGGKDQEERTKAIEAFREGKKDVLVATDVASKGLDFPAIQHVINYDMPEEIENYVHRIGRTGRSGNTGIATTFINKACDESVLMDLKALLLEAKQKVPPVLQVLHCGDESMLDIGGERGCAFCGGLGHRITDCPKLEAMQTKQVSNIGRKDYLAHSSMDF

According to PMC12508481:

T1: CGG triplet repeat binding protein 1 (human (endogenous in U-2OS)) (UniProt Q9UFW8)
T1 sequence: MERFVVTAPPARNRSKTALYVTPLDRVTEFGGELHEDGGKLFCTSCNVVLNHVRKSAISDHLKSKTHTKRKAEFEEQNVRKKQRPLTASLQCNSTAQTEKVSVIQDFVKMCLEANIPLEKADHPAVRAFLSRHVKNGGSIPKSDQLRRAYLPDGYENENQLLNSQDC

B1: DDX28, RNA:DNA helicase of the DEAD-box family (enzyme, UniProt Q9NUL7 1-540)
chain: MALTRPVRLFSLVTRLLLAPRRGLTVRSPDEPLPVVRIPVALQRQLEQRQSRRRNLPRPVLVRPGPLLVSARRPELNQPARLTLGRWERAPLASQGWKSRRARRDHFSIERAQQEAPAVRKLSSKGSFADLGLEPRVLHALQEAAPEVVQPTTVQSSTIPSLLRGRHVVCAAETGSGKTLSYLLPLLQRLLGQPSLDSLPIPAPRGLVLVPSRELAQQVRAVAQPLGRSLGLLVRDLEGGHGMRRIRLQLSRQPSADVLVATPGALWKALKSRLISLEQLSFLVLDEADTLLDESFLELVDYILEKSHIAEGPADLEDPFNPKAQLVLVGATFPEGVGQLLNKVASPDAVTTITSSKLHCIMPHVKQTFLRLKGADKVAELVHILKHRDRAERTGPSGTVLVFCNSSSTVNWLGYILDDHKIQHLRLQGQMPALMRVGIFQSFQKSSRDILLCTDIASRGLDSTGVELVVNYDFPPTLQDYIHRAGRVGRVGSEVPGTVISFVTHPWDVSLVQKIELAARRRRSLPGLASSVKEPLPQAT
B2: MRM1 (protein, UniProt Q6IN84 21-353)
chain: SHAARHGERPGGEELSRLLLDDLVPTSRLELLFGMTPCLLALQAARRSVARLLLQAGKAGLQGKRAELLRMAEARDIPVLRPRRQKLDTMCRYQVHQGVCMEVSPLRPRPWREAGEASPGDDPQQLWLVLDGIQDPRNFGAVLRSAHFLGVDKVITSRRNSCPLTPVVSKSSAGAMEVMDVFSTDDLTGFLQTKAQQGWLVAGTVGCPSTEDPQSSEIPIMSCLEFLWERPTLLVLGNEGSGLSQEVQASCQLLLTILPRRQLPPGLESLNVSVAAGILLHSICSQRKGFPTEGERRQLLQDPQEPSARSEGLSMAQHPGLSSGPEKERQNEG

The molecules below were run against T1, CGG triplet repeat binding protein 1 (human (endogenous in U-2OS)) (assay: affinity purification with mass spectrometry; IP of endogenous CGGBP1 from untreated U-2OS Tet-ON lysate (25 mM Tris-HCl pH 7.4, 150 mM KCl, 1 mM MgCl2, 10% glycerol, 0.1% Triton X-100) with a mix of two anti-CGGBP1 antibodies on Protein G magnetic beads, 4 °C; control IgG-IP; LC-MS/MS, label-free quantification, N = 3).

binding, binds:
DDX41, ATP-dependent DEAD-box DNA:RNA helicase (from UniProt Q9UJV9 1-622) (enzyme)
B1
B2

Results are given in words; binding and its absence hold for the method and conditions named. In cells and extracts the contact can be indirect. These calls come from enrichment with a bait or labelling near it, and not all partners need be listed.
